{"source": "PubChem BioAssay AID1259308 – NCATS | 2017", "screen": "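Genes whose loss raises luciferase production in HEK293 cells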 (primary screen)", "cell system": "human HEK293 embryonic kidney cells stably expressing firefly luciferase (HEK-CMV-Luc2-Hygro)", "reagents": "single siRNA against human genes, 0.8 pmol siRNA per well", "duration": "72 h", "measured": "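Reporter luminescence and viable-cell signal on separate replicate plates, given as percent of non-targeting control and median/MAD z-scores, plus per-cell luciferase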", "reading the numbers": "total luciferase, z-score: higher = more reporter protein produced", "active means": "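An siRNA counts as active if its total luciferase robust z-score exceeds 3; genes with two or more such siRNAs out of three were retested with fresh siRNAs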", "meaning of the calls": "active = raised luciferase; inactive = no rise", "note": "In all, the deposit lists about 59,000 reagents; this is a random part of them. Of all reagents, about 1,510 (2.6%) were called active. 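Calls use total luciferase alone and ignore viability, so some active siRNAs may act by altering cell number.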 Reagents against one gene are numbered here. Not all columns of the deposit are shown. No sequences are given here."}
{"Target gene": "ATP11AUN", "reagent no.": 1, "total luciferase, z-score": -2, "activity call": "inactive"}
{"Target gene": "ATP11AUN", "reagent no.": 2, "total luciferase, z-score": 1.29, "activity call": "inactive"}
{"Target gene": "ATP11AUN", "reagent no.": 3, "total luciferase, z-score": -0.626, "activity call": "inactive"}
{"Target gene": "GS1-24F4.2", "reagent no.": 1, "total luciferase, z-score": -0.894, "activity call": "inactive"}
{"Target gene": "GS1-24F4.2", "reagent no.": 2, "total luciferase, z-score": -0.909, "activity call": "inactive"}
{"Target gene": "GS1-24F4.2", "reagent no.": 3, "total luciferase, z-score": 1.57, "activity call": "inactive"}
{"Target gene": "MCRS1", "reagent no.": 1, "total luciferase, z-score": -0.338, "activity call": "inactive"}
{"Target gene": "MCRS1", "reagent no.": 2, "total luciferase, z-score": -0.487, "activity call": "inactive"}
{"Target gene": "MCRS1", "reagent no.": 3, "total luciferase, z-score": 1.11, "activity call": "inactive"}

Ordered by “total luciferase, z-score” (lowest first): 2 of the entries above.
{"Target gene": "ATP11AUN", "reagent no.": 3, "total luciferase, z-score": -0.626, "activity call": "inactive"}
{"Target gene": "ATP11AUN", "reagent no.": 2, "total luciferase, z-score": 1.29, "activity call": "inactive"}

The results go on:
{"Target gene": "KCTD17", "reagent no.": 1, "total luciferase, z-score": 1.69, "activity call": "inactive"}
{"Target gene": "KCTD17", "reagent no.": 2, "total luciferase, z-score": -1.31, "activity call": "inactive"}
{"Target gene": "KCTD17", "reagent no.": 3, "total luciferase, z-score": -1.15, "activity call": "inactive"}
{"Target gene": "CRMA", "reagent no.": 1, "total luciferase, z-score": 1.57, "activity call": "inactive"}
{"Target gene": "CRMA", "reagent no.": 2, "total luciferase, z-score": 1.44, "activity call": "inactive"}
{"Target gene": "CRMA", "reagent no.": 3, "total luciferase, z-score": -0.591, "activity call": "inactive"}
{"Target gene": "VCAM1", "reagent no.": 1, "total luciferase, z-score": -0.204, "activity call": "inactive"}
{"Target gene": "VCAM1", "reagent no.": 2, "total luciferase, z-score": 3.31, "activity call": "active"}
{"Target gene": "VCAM1", "reagent no.": 3, "total luciferase, z-score": -0.339, "activity call": "inactive"}
{"Target gene": "ACTN3", "reagent no.": 1, "total luciferase, z-score": -0.581, "activity call": "inactive"}
{"Target gene": "ACTN3", "reagent no.": 2, "total luciferase, z-score": 0.772, "activity call": "inactive"}
{"Target gene": "ACTN3", "reagent no.": 3, "total luciferase, z-score": -0.326, "activity call": "inactive"}
